Non-standard residues stand in square brackets, D forms with d. No end group written: not given here. Dab = NCC[C@H](N)C(=O)O
Test: general procedure: Fmoc solid-phase peptide synthesis; Fmoc-Pro-2-chlorotrityl resin (2-chlorotritylchloride resin, 100-200 mesh, Novabiochem)
Conditions: whole synthesis, UV, scale of the general procedure approximately 60 mg resin per vessel

Substance | final HPLC purity [%]
P[dP]KQYCYR[Dab][dP]ASCAHY (cysteine pairing not given here) | 72
P[dP]KQYCYR[Dab][dP]ASCYHY (cysteine pairing not given here) | 82
